Measured values taken from patent US11229657B2, “Targeting hypoxic cancer stem cells (CSCs) with doxycycline: implications for improving anti-angiogenic therapy” (LUNELLA BIOTECH, INC., priority 2017, dated 2022).
At least one structure is not confirmed: it was looked up by name or label, or the drawing left a doubt.

Tested on: MCF7 cells
Experiment: Mammosphere formation assay (CSC activity/propagation)
Assay type: cell-based

C[C@H]1c2cccc(O)c2C(=O)C2=C(O)[C@]3(O)C(=O)C(C(N)=O)=C(O)[C@@H](N(C)C)[C@@H]3[C@@H](O)[C@@H]21 [Doxycycline]
Paclitaxel-resistant CSC activity (mammosphere formation) (FIG. 5C): significantly inhibits | hypoxia-induced mammosphere formation (normoxic and hypoxic conditions, FIGS. 4A-B): inhibited
